No constants are given. Whether binding was seen depends on the method and setting. Binding seen in cells or lysates may run through a third protein. Binding calls can cover weak binding; strength is not graded here.
Target: nucleotide-binding domain (NBD) of Hsc70
Test: co-IP; truncated mutants of GKN2 and Hsc70 tagged with myc and HA

B1: GKN2 as used in the co-immunoprecipitation of the truncated mutants (protein, UniProt Q86XP6 21-184)
chain: YEVFNIISPSNNGGNVQETVTIDNEKNTAIINIHAGSCSSTTIFDYKHGYIASRVLSRRACFILKMDHQNIPPLNNLQWYIYEKQALDNMFSSKYTWVKYNPLESLIKDVDWFLLGSPIEKLCKHIPLYKGEVVENTHNVGAGGCAKAGLLGILGISICADIHV
  binding: binds

— article PMC6683576
